{
  "sequences": {"note": "Amino acid sequences for entries named in this document (tags omitted). A change or cut given only in a name is not applied to a line headed by its entry.", "UniProt Q9NX61": "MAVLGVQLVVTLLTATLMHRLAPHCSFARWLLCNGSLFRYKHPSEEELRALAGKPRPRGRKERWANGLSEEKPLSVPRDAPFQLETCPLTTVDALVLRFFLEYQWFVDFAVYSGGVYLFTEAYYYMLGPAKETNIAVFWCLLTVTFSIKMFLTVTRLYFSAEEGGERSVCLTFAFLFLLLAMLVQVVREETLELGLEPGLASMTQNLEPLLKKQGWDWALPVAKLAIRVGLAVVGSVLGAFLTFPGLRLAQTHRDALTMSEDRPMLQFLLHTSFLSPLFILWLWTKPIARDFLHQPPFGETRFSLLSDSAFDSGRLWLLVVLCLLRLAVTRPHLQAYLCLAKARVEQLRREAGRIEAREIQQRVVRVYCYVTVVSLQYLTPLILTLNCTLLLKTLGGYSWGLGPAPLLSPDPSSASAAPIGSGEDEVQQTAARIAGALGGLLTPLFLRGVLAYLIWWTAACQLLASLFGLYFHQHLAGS", "UniProt Q9UBE0": "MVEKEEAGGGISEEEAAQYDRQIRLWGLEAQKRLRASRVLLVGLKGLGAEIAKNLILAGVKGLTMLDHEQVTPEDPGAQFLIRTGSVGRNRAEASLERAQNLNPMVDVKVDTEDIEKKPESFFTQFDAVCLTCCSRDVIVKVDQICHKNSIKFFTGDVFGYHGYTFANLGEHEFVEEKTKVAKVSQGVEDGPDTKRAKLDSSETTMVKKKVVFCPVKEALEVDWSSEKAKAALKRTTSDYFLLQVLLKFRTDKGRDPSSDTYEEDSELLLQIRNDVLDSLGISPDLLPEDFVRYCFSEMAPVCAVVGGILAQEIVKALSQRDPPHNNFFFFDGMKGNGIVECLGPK", "UniProt Q9P287, whole entry": "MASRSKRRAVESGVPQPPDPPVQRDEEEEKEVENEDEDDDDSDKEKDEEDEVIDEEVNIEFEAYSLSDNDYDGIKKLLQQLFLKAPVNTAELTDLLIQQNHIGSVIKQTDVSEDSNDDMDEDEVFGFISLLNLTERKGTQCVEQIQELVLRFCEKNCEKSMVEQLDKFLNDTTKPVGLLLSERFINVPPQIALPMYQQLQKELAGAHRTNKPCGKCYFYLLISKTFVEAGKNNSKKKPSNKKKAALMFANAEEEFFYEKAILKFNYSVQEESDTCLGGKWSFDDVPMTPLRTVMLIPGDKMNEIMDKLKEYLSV", "UniProt Q9NYZ3": "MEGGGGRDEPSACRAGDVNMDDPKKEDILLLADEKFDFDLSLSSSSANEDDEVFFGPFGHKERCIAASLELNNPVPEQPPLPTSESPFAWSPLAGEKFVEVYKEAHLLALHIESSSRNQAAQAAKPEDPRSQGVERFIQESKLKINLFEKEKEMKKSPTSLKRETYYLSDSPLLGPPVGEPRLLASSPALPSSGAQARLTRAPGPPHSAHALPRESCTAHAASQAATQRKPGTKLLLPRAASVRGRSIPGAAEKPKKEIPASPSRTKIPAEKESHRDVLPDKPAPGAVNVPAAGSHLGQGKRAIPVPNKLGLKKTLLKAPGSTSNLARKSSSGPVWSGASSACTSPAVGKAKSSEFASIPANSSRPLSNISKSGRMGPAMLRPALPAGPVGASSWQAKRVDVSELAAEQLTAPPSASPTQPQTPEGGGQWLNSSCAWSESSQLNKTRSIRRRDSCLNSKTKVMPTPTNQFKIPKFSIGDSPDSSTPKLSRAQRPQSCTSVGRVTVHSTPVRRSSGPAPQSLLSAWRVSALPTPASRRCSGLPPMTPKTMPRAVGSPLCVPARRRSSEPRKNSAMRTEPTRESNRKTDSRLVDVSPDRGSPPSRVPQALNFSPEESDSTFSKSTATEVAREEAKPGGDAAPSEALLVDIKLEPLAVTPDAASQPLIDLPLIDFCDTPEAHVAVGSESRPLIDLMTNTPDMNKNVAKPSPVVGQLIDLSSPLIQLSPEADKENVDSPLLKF", "UniProt Q9UFG5": "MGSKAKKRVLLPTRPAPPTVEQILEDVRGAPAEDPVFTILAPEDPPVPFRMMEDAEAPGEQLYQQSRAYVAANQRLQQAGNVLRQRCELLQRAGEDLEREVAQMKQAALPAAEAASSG", "UniProt Q9NZI8, whole entry": "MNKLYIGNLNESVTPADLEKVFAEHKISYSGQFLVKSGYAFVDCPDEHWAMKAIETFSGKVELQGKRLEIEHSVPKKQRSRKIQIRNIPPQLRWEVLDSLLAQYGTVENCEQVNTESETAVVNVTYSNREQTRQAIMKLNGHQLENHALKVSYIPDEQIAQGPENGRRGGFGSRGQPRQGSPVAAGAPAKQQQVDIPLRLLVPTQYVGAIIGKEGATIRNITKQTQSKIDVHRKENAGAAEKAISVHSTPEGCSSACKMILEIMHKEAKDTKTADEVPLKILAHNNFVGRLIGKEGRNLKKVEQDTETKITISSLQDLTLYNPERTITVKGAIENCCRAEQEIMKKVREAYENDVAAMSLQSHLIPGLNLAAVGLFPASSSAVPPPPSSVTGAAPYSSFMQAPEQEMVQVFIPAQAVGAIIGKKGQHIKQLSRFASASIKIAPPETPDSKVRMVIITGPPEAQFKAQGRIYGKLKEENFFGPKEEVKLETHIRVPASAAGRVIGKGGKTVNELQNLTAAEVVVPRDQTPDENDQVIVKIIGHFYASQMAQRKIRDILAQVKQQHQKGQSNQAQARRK", "UniProt Q9NWZ5": "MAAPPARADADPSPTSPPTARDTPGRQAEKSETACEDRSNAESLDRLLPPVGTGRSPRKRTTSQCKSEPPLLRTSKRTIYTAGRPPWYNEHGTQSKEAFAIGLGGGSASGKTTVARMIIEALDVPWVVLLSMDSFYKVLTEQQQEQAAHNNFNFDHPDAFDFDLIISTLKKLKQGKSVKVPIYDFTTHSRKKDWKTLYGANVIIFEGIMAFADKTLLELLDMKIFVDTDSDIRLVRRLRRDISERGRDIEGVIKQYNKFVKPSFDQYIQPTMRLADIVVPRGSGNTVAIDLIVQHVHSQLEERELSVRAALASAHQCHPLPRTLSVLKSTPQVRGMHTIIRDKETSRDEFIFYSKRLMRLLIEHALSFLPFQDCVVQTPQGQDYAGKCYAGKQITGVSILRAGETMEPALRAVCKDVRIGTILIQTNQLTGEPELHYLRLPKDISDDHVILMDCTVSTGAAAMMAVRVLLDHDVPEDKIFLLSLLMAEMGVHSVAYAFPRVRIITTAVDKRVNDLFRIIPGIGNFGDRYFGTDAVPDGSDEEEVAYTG", "UniProt Q9UFF9, whole entry": "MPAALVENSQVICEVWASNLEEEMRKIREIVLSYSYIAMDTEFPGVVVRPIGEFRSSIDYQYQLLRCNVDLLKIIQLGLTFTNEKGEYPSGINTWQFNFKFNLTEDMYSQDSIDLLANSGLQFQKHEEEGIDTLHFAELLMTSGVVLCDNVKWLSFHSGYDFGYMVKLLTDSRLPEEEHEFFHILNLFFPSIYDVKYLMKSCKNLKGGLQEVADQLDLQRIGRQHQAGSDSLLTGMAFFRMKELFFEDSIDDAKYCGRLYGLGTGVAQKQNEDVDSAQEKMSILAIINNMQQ", "UniProt Q9UBF1": "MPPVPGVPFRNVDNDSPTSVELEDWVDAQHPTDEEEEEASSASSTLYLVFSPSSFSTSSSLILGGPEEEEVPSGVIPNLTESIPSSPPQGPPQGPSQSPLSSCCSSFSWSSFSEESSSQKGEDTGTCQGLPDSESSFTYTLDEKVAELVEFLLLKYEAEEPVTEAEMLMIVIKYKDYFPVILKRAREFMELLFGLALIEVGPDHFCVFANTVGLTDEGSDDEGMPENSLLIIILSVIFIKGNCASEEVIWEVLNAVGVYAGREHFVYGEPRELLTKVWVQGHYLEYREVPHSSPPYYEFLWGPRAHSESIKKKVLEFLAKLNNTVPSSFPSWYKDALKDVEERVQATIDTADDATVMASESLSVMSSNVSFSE"},
  "source": "the supplement of paper PMC12819154",
  "about": "“High-throughput peptide-centric local stability assay extends protein–ligand identification to membrane proteins, tissues and bacteria” (Nature Structural & Molecular Biology, 2025)",
  "note": "The other results are listed elsewhere or left out. Small differences around the control level are noise.",
  "data": [
    {"compound": "Cc1nc(Nc2ncc(C(=O)Nc3c(C)cccc3Cl)s2)cc(N2CCN(CCO)CC2)n1 [dasatinib]", "experiment": "log2 fold change of tryptic peptide abundance, ligand vs vehicle (limited proteolysis) (log2 ratio); higher = more trypsin-susceptible (destabilized)", "details": "ligand concentration: 5 uM; sample: K562 cleared lysate", "values": [
      {"target": "TMEM161A (peptide sequence: WANGLSEEKPLSVPR, peptide start residue: 64) (UniProt Q9NX61)", "log2 fold change": 0.163},
      {"target": "SAE1 (peptide sequence: ALSQRDPPHNNFFFFDGMK, peptide start residue: 317) (UniProt Q9UBE0)", "log2 fold change": 0.504},
      {"target": "BCCIP (peptide sequence: KGTQCVEQIQELVLR, peptide start residue: 137) (UniProt Q9P287)", "log2 fold change": -0.102},
      {"target": "GTSE1 (peptide sequence: AVGSPLCVPAR, peptide start residue: 533) (UniProt Q9NYZ3)", "log2 fold change": -0.182},
      {"target": "C19orf25 (peptide sequence: AGEDLEREVAQMK, peptide start residue: 93) (UniProt Q9UFG5)", "log2 fold change": -0.385},
      {"target": "IGF2BP1 (peptide sequence: TADEVPLK, peptide start residue: 273) (UniProt Q9NZI8)", "log2 fold change": 0.0932},
      {"target": "UCKL1 (peptide sequence: GSGNTVAIDLIVQHVHSQLEER, peptide start residue: 282) (UniProt Q9NWZ5)", "log2 fold change": -0.337},
      {"target": "CNOT8 (peptide sequence: QHQAGSDSLLTGMAFFR, peptide start residue: 224) (UniProt Q9UFF9)", "log2 fold change": 0.161},
      {"target": "MAGEC2 (peptide sequence: EHFVYGEPR, peptide start residue: 263) (UniProt Q9UBF1)", "log2 fold change": -0.124}
    ]}
  ]
}
